Measurements reported in article PMC5359637.
Results are given in words; binding and its absence hold for the method and conditions named. In cells and extracts the contact can be indirect. Some results given as binding are weak or reduced against the parent protein; the word gives no strength.

Amino acid sequences for entries named in this document (tags omitted).
UniProt Q6Y1S1: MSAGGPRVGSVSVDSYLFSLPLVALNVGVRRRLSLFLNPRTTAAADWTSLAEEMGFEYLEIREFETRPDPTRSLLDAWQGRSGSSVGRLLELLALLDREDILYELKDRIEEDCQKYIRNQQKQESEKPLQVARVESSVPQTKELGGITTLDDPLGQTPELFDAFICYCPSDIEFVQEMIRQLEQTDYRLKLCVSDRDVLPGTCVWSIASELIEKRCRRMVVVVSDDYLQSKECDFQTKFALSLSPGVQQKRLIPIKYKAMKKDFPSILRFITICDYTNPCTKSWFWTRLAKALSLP

Target: T1, TLR4 of NRK-52E cells (rat (endogenous in NRK-52E)) (UniProt Q9QX05)
T1 sequence: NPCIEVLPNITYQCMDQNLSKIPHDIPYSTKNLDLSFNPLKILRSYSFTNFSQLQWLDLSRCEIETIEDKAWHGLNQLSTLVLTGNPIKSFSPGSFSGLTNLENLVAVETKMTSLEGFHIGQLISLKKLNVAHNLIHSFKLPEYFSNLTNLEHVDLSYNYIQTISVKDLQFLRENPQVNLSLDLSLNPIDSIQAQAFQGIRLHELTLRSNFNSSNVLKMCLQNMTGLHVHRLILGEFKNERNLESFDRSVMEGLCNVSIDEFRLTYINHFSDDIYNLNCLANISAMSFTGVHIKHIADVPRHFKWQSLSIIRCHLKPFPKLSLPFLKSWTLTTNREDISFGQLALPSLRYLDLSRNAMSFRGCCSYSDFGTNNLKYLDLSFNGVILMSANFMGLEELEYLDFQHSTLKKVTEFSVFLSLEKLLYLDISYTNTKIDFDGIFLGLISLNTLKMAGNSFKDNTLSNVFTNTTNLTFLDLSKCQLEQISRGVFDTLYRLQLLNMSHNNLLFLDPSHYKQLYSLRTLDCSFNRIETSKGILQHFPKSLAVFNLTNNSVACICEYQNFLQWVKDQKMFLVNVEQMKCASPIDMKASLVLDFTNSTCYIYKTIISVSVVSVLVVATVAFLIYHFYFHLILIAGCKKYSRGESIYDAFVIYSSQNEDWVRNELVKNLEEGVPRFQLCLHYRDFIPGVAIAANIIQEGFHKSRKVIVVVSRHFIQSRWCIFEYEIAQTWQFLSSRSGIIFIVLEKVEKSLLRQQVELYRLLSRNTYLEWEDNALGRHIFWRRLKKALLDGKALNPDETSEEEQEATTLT
Assay: co-IP; NRK-52E cells stimulated with Ang II for 30 min, with or without L6H21 pretreatment (2.5, 5, 10 uM, 1 h) or MD2 siRNA; cell extracts with anti-MD2 or anti-TLR4 antibody for 1 h, protein G-Sepharose at 4 C overnight; blot for TLR4 or MyD88

In the case of “MyD88 of NRK-52E cells (from UniProt Q6Y1S1 1-296)”, the binding was “binds”.
